Measurements: PubChem BioAssay AID1671190 (National Center for Advancing Translational Sciences (NCATS), 2021)
Out of some 580,000 compounds screened, about 6,100 (1.1%) were called active. The inconclusive results got no clear call from the source; some entries with a clear call stand among them for comparison. The call rests on the fitted dose curve; in most records, active means well fitted inhibition curve with a large enough effect; inconclusive means small, poorly fitted or top-dose-only effect, or another doubt; inactive means no such curve, though single readings can be large or run the other way. Where the call is inconclusive, the potency comes from a doubtful curve fit.

Protein sequences, listed by entry. Tags and fused reporters are not part of them. Lines headed by an entry give the natural chain unless they say otherwise; changes in a name come on top.
UniProt P18054: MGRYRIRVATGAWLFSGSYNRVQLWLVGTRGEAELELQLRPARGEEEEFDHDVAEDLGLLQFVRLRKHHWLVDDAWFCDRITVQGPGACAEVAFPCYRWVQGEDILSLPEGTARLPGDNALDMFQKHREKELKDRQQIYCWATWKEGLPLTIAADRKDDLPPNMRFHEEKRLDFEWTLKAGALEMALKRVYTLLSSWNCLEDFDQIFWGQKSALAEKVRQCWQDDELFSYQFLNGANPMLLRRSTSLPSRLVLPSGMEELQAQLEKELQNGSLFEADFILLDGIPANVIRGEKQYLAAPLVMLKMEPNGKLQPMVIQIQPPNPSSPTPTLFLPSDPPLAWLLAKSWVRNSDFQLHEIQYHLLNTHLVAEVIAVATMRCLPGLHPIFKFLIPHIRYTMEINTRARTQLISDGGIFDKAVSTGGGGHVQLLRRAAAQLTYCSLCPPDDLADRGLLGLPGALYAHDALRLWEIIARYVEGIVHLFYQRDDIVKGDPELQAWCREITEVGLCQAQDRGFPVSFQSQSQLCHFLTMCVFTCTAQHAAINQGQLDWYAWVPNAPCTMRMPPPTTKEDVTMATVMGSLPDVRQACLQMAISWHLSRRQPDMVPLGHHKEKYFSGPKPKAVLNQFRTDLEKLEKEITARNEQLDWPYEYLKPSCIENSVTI

molecular target: Polyunsaturated fatty acid lipoxygenase ALOX12 (Homo sapiens) (UniProt P18054); assay: Primary qHTS assay for inhibitors of human arachidonate 12S-lipoxygenase (ALOX12): Round 2; settings: purified 12hLO, xylenol orange hydroperoxide absorbance; series mostly up to 108 µM
Summary of the method: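 Purified human 12hLO at 150 nM in 25 mM Hepes, 0.01% Triton X-100, pH 7.0, preincubated 15 min at room temperature with compound. Reaction started with 40 uM arachidonic acid, 30 min at room temperature. Hydroperoxide measured by Fe-xylenol orange, 573/405 nm absorbance ratio.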
Potency means the concentration at half of the fitted maximal effect.

Structure (SMILES) | Potency
CC1CCN(Cc2nnnn2CCCC(=O)NC(c2ccccn2)C(F)(F)F)CC1 (stereo not drawn) | inconclusive: 35.5 µM [inhibitor, partial curve, poor fit]
CCOc1nc2ccccc2nc1N1CCC(C(=O)Nc2ccc(C(C)C)cc2)CC1 | inactive
Cc1nccn1-c1ccc(NC(=O)[C@H]2O[C@@H](n3ccc(=O)[nH]c3=O)[C@H](O)[C@@H]2O)cc1 | inactive
CCCNc1c(NS(=O)(=O)c2ccccc2)c(=O)oc2ccccc12 | inconclusive: 5.62 µM [inhibitor, full curve, poor fit]
O=C(NC1CCCC1)c1csc2ccccc12 | inactive
CCOc1cccc(C(=O)N(Cc2c(F)cccc2Cl)c2ccccn2)c1 | inactive
COc1cc(C(=O)N(Cc2nc3ccccc3c(=O)[nH]2)C(C)C)cc(Cl)c1OCC(N)=O | inactive
Cc1ccc(NC(=O)COc2cccc(F)c2)cc1OCc1cc(=O)n2c(ncn2C(C)C)n1 | inconclusive: 141 µM [inhibitor, partial curve, poor fit]
COc1cc(C)c(C(=O)Oc2cc(C)c(C(=O)O)c(O)c2C)c(OC)c1C | inconclusive: 70.8 µM [inhibitor, partial curve, poor fit]
CC(OC(=O)c1ccc(O)cc1)C(=O)Nc1ccccc1OC(F)F (stereo not drawn) | inactive
CCN1CCC2(Cc3ccccc3CN(C(=O)Cc3ccc(OC)cc3)C2)C1 (stereo not drawn) | inconclusive: 70.8 µM [inhibitor, single point]
Cc1oc2cc(OCC(=O)NC(C)c3cccs3)ccc2c(=O)c1Oc1ccccc1 (stereo not drawn) | inactive
CC(C)Oc1cccc(Cn2cnc3c2c(=O)n(C)c(=O)n3C)c1 | inactive
COc1ccc(CNC(=O)c2ccc3c(c2)NC(=O)CS3)cc1 | inconclusive: 31.6 µM [inhibitor, full curve, poor fit]
O=C(CSc1ncnc2nc[nH]c12)NCCc1c[nH]c2ccc(Cl)cc12 | inactive
O=Nc1c2cc3ccccc3[nH]c-2c2ccccc12 | inconclusive: 50.1 µM [inhibitor, partial curve, poor fit]
N#Cc1ccc(CN2CCC3(CC2)CCN(S(=O)(=O)c2ccccc2)CC3)cc1 | inactive
Cc1cc(C)cc(NC(=S)NC(=O)C2CC2)c1 | inconclusive: 56.2 µM [inhibitor, partial curve, poor fit]
COC(=O)c1ccc(Nc2cc(C)nc3ccccc23)cc1 | inactive
CC(OC(=O)c1ccc(S(=O)(=O)NCc2ccco2)cc1)C(=O)Nc1ccc(Cl)cn1 (stereo not drawn) | inconclusive: 11.2 µM [inhibitor, full curve, poor fit]
Cc1ccccc1N1C(=O)C(Cl)=C(N2CCOCC2)C1=O | inconclusive: 35.5 µM [inhibitor, partial curve, poor fit]
CN(C)CCCN(C(=O)c1cc(-c2cccs2)nc2ccccc12)c1nc2ccc(F)cc2s1 | inconclusive: 44.7 µM [inhibitor, partial curve, poor fit]
C1CCN=C(Nc2nn[nH]n2)CC1 | inconclusive: 0.398 µM [inhibitor, full curve, poor fit]

Structure (SMILES) | Potency
CCC(C)(C#N)NC(=O)Cc1cccs1 (stereo not drawn) | inactive
Fc1ccc(C(NCCc2ccc(Cl)cc2)c2nnc(-c3ccccc3Cl)o2)cc1 (stereo not drawn) | inactive
N[C@H]1CCN2C(=O)c3cc(-c4ccc(Cl)cc4)ccc3NC(=O)[C@@H]2C1 | inconclusive: 39.8 µM [inhibitor, full curve]
COc1cccc(N2CCN(C(=O)c3oc4ccccc4c3NC(=O)Cc3ccc(OC)c(OC)c3)CC2)c1 | inactive
CCN(CC)[C@H]1[C@@H]2OC[C@@H](O2)[C@@H](NCc2ccc(OC(F)(F)F)cc2)[C@@H]1O | inactive
O=C(NC1CCS(=O)(=O)C1)c1cc2sccc2n1Cc1ccccc1Cl (stereo not drawn) | inconclusive: 79.4 µM [inhibitor, single point]
COc1ccc2ccccc2c1CNC1CCN(c2ccc(C(=O)N3CCOCC3)cc2)CC1 | inactive
COC(Cn1c(-c2cccc(S(=O)(=O)N(C)C)c2)n[nH]c1=S)OC | inconclusive: 35.5 µM [inhibitor, partial curve, poor fit]
CNc1ccc(S(=O)(=O)NCC(=O)OCC(=O)Nc2cccc(Cl)c2Cl)cc1[N+](=O)[O-] | inconclusive: 56.2 µM [inhibitor, partial curve, poor fit]
COCCn1c(C)cc(C(=O)COC(=O)c2c(C)nn(Cc3ccccc3)c2Cl)c1C | inactive
O=C(O)C1=C2C(=O)Nc3cccc(c32)C2(C1)C(=O)Nc1ccccc12 (stereo not drawn) | inconclusive: 44.7 µM [inhibitor, partial curve, poor fit]
O=c1c(CCc2ccccc2)nc2cncnc2n1Cc1ccccc1Cl | inconclusive: 35.5 µM [inhibitor, partial curve, poor fit]
CCCc1ccc(/C(C)=N/NC(=O)C2CC2c2ccccc2)cc1 (stereo not drawn) | inactive
C/C(=N\NC(=S)Nc1ccc(C)c(C)c1)c1ccc(N2CCOCC2)cc1 | active: 35.5 µM
COc1ccc(C2CC(=O)c3cc(-c4nc(-c5ccc(C)cc5)cs4)c(=O)[nH]c3C2)cc1 (stereo not drawn) | inconclusive: 50.1 µM [inhibitor, partial curve, poor fit]
CCOc1cc(/C=N/NC(=O)c2cc(C)n(-c3ccc(F)cc3)c2C)ccc1O | inactive
CCc1noc(C)c1C(=O)Nc1sc2c(c1C#N)CCC(CC)C2 (stereo not drawn) | inconclusive: 39.8 µM [inhibitor, partial curve, poor fit]
O=[N+]([O-])c1ccc(N(CCO)Cc2ccccc2)c([N+](=O)[O-])c1 | inconclusive: 3.98 µM [inhibitor, full curve]
COC(=O)C1=C(C)N(Cc2ccc(C(F)(F)F)cc2)C(=NCc2ccc(C(F)(F)F)cc2)NC1c1cccc(F)c1 (stereo not drawn) | inconclusive: 79.4 µM [inhibitor, partial curve, poor fit]
CCCOc1c(Br)cc(C2C3=C(CCCC3=O)N(CC)C3=C2C(=O)CCC3)cc1OC | inconclusive: 50.1 µM [inhibitor, partial curve, poor fit]
Cc1nnc(NC(=O)CSc2nc3c(c(=O)n2CCc2ccccc2)SC(C)C3)s1 (stereo not drawn) | inactive
Cc1cc(C)cc(C(=O)NCC(=O)N2CCCC2c2ccccc2)c1 (stereo not drawn) | inconclusive: 5.01 µM [inhibitor, full curve, poor fit]
CCOC(=O)c1ccc(NC(=S)NNC(=O)c2cc(-c3cccnc3)nc3ccccc23)cc1 | inconclusive: 44.7 µM [inhibitor, partial curve, poor fit]

Structure (SMILES) | Potency
O=C(c1cccc(F)c1)N1CCC2(CC1)N=C(c1ccc(Br)cc1)NO2 | inconclusive: 10 µM [inhibitor, full curve]
CCCNC(=O)c1ccc(COc2cccc3ccccc23)o1 | inconclusive: 89.1 µM [inhibitor, single point]
CN(C)c1ccc(/C=N/NC(=O)c2ccc3ccccc3c2)cc1 | inactive
CCCNC(=S)Nc1ccc(Br)cc1 | inconclusive: 79.4 µM [inhibitor, single point]
Cc1csc(NC(=O)c2nc3nccc(C)n3n2)n1 | inconclusive: 15.8 µM [inhibitor, partial curve, poor fit]
Cc1ccc(C(=O)NCC(=O)NCC(=O)OCc2ccc(Cl)cc2)cc1 | inactive
O=S1(=O)CCN2C(c3ccc(Cl)cc3)=CSC2=N1 | inactive
COC(=O)c1cccc(-c2ccc(C=O)o2)c1 | inconclusive: 35.5 µM [inhibitor, single point]
COc1ccc(CN2C[C@@H](F)[C@@H](OCc3nc4ncccc4[nH]3)C2)cc1 | inactive
Cc1ccc(/C(O)=C/C(=O)C(=O)NC23CC4CC(CC(C4)C2)C3)cc1 | inconclusive: 7.08 µM [inhibitor, partial curve, poor fit]
COc1ccc(S(=O)(=O)N(C)C[C@@H]2OCCCC[C@H](C)Oc3ccc(NC(=O)Nc4ccc(C(F)(F)F)cc4)cc3C(=O)N([C@H](C)CO)C[C@H]2C)cc1 | inconclusive: 89.1 µM [inhibitor, single point]
COCCCn1c(SCc2cccc(OC)c2)nc2cc(OC)c(OC)cc2c1=N | inconclusive: 89.1 µM [inhibitor, partial curve, poor fit]
C=CCOc1ccc(CNCCc2ccc(S(N)(=O)=O)cc2)cc1 | inconclusive: 25.1 µM [inhibitor, partial curve, poor fit]
COc1ccc(NC(C)c2nc(-c3cccs3)no2)cc1 (stereo not drawn) | inconclusive: 25.1 µM [inhibitor, single point]
CC(C)(C)c1ccc(NC(=O)CCC(=O)O)cc1 | inactive
CCCCCC1CCC(c2ccc(C(N)=O)cc2)CC1 (stereo not drawn) | inactive
COc1cccc(NC(=S)N(CCc2c(C)[nH]c3ccccc23)Cc2cccs2)c1 | inconclusive: 17.8 µM [inhibitor, full curve]
COc1cc(/C=C/C(=O)c2ccc(C)cc2OC)ccc1OC(F)F | inactive
COc1ccc(-c2csc(Cc3nnc4n3CCCCC4)n2)cc1 | inactive
COc1ccc2[nH]c3c4c(ccc3c2c1)C(=O)C=CC4=O | inconclusive: 0.0794 µM [inhibitor, full curve, poor fit]
CCCOC(=O)COc1ccc2c(=O)c(-c3ccccc3OC)c(C(F)(F)F)oc2c1 | inconclusive: 112 µM [inhibitor, partial curve, poor fit]
O=c1c(Cl)c(N2CCN(Cc3nc(-c4ccsc4)no3)CC2)cnn1-c1ccccc1 | inconclusive: 70.8 µM [inhibitor, partial curve, poor fit]

As entered above.
Entry for `O=C(CSc1ncnc2nc[nH]c12)NCCc1c[nH]c2ccc(Cl)cc12` under Potency: inactive
Entry for `COc1ccc(CNC(=O)c2ccc3c(c2)NC(=O)CS3)cc1` under Potency: inconclusive: 31.6 µM [inhibitor, full curve, poor fit]
Entry for `O=S1(=O)CCN2C(c3ccc(Cl)cc3)=CSC2=N1` under Potency: inactive

Three compounds out of the list, sorted by length of the SMILES, ascending:
Structure (SMILES) | Potency
CCCc1ccc(/C(C)=N/NC(=O)C2CC2c2ccccc2)cc1 (stereo not drawn) | inactive
COC(Cn1c(-c2cccc(S(=O)(=O)N(C)C)c2)n[nH]c1=S)OC | inconclusive: 35.5 µM [inhibitor, partial curve, poor fit]
COCCn1c(C)cc(C(=O)COC(=O)c2c(C)nn(Cc3ccccc3)c2Cl)c1C | inactive
